Assay results published in article PMC5391204.
These are yes or no findings as the source states them, for the method shown. Binding seen in cells or lysates may run through a third protein. These calls come from enrichment with a bait or labelling near it, and not all partners need be listed.

The chains behind the UniProt entries cited, without tags or fusion partners.
UniProt Q9Y487: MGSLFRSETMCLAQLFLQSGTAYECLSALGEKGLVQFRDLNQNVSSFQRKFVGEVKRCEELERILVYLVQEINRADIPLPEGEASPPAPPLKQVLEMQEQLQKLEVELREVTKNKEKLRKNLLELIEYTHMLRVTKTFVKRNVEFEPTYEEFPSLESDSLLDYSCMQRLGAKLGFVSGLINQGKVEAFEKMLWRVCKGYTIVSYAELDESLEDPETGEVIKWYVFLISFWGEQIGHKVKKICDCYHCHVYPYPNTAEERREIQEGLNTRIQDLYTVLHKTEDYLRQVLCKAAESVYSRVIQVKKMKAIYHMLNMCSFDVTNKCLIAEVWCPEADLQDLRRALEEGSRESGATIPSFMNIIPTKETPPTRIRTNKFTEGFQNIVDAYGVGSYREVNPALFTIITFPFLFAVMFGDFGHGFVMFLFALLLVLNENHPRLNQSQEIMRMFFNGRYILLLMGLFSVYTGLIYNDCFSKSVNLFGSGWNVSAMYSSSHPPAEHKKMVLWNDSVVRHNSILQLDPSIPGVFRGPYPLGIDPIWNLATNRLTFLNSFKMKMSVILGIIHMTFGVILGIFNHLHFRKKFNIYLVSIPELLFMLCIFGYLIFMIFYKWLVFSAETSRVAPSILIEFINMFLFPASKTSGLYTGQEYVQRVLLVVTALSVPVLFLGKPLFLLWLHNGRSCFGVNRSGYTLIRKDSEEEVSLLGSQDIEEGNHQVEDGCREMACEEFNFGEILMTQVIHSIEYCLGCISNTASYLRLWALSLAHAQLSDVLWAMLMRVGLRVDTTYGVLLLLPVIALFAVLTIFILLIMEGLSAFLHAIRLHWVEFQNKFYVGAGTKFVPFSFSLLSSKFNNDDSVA
UniProt P61421: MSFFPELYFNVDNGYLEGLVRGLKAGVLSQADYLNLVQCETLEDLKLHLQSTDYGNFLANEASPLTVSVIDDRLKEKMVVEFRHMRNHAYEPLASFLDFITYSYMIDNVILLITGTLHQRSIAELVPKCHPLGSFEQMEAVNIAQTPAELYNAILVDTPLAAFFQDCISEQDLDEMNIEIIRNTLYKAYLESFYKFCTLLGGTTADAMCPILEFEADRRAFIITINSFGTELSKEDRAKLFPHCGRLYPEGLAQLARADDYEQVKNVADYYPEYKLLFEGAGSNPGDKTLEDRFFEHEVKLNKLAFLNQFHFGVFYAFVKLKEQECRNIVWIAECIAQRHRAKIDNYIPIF

T1: TMEM199 (human (endogenous in HeLa)) (UniProt Q8N511)
T1 sequence: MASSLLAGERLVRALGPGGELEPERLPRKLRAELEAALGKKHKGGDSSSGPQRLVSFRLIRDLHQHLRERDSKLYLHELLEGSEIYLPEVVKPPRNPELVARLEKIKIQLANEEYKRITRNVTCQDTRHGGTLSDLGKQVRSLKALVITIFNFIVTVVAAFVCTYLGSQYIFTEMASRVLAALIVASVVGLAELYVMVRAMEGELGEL


target: T1, TMEM199 (human (endogenous in HeLa)); experiment: affinity purification with mass spectrometry; endogenous TMEM199 immunoprecipitated with the TMEM199 antibody on Dynabeads Protein G, 3 hr at 4°C, from wildtype HeLa cells lysed in 1% NP-40; TMEM199 KO HeLa cells as control; hits with unique peptide count >2

Row | binding | Molecule
1 | binds | ATP6V0A2 (from UniProt Q9Y487 1-856)
2 | binds | ATP6V0D1 (from UniProt P61421 1-351)
3 | binds | CCDC115 (coiled-coil domain-containing protein 115) (protein, UniProt Q96NT0 1-180) MAALDLRAELDSLVLQLLGDLEELEGKRTVLNARVEEGWLSLAKARYAMGAKSVGPLQYASHMEPQVCLHASEAQEGLQKFKVVRAGVHAPEEVGPREAGLRRRKGPTKTPEPESSEAPQDPLNWFGILVPHSLRQAQASFRDGLQLAADIASLQNRIDWGRSQLRGLQEKLKQLEPGAA
